Laboratory results published in the supplement of paper PMC10338343.
± gives the standard deviation. The list shows a part of the results, in another mix than the full data. Many of these values have a large error. The list shows a part of the results.

What was measured:
[1] = system: MILI (PIWIL2) piRISC loaded with L1MC piRNA (26 nt); assay: pre-steady-state target cleavage rate (min^-1); higher = faster piRNA-guided slicing of the target; conditions: guide: L1MC piRNA 5'p-UAACUAAAUACUAUGCAAGCUGUAGG
Procedure, shortened: (§1)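 The pre-steady-state cleavage rate came from a burst-and-steady-state fit to pooled data from three Cleave-'n-Seq trials, in which uncleaved targets were sequenced and normalised to depth and to weakly complementary targets. Each reaction held 0.1 nM transcribed, DNA-blocked target RNA library and 1 nM active affinity-purified piRISC carrying one synthetic guide, with or without 500 nM GTSF1 partner protein, in HEPES–potassium acetate buffer at 33 °C for 0–8 or 0–960 min. k3 was capped at 0.0001 min^-1.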

[2] = system: MIWI (PIWIL1) piRISC loaded with L1MC piRNA (30 nt); assay: as above; conditions: guide: L1MC piRNA 5'p-UAACUAAAUACUAUGCAAGCUGUAGGUCCU
Procedure, shortened: as §1

[3] = system: EfPiwi piRISC loaded with L1MC piRNA (26 nt); assay: pre-steady-state target cleavage rate (min^-1); guide: L1MC piRNA 5'p-UAACUAAAUACUAUGCAAGCUGUAGG; MIWI and MILI are mouse PIWI proteins and EfPiwi is from a freshwater sponge; tags in brackets are library labels; higher = faster piRNA-guided slicing of the target
Procedure, shortened: as §1

[4] = auxiliary factor: 500 nM mouse GTSF1
[5] = auxiliary factor: none (no GTSF1)
[6] = auxiliary factor: 500 nM Ephydatia muelleri Gtsf1
[7] = auxiliary factor: none (no Gtsf1)

Sequence | pre-steady-state target cleavage rate [1, 4] | pre-steady-state target cleavage rate [1, 5] | pre-steady-state target cleavage rate [2, 5] | pre-steady-state target cleavage rate [3, 6] | pre-steady-state target cleavage rate [3, 7] | pre-steady-state target cleavage rate [2, 4]
UCCUGGAUCAGCUUGCAAUGUAUUUAGAAA | 0.0496 ± 0.013 | 0.00148 ± 0.0045 | 0.00286 ± 0.003 | 0.000457 ± 0.0056 | – | –
UCCUGGAUGUCCUUGGAUAGUAUUUAGUAA | 0.121 ± 0.019 | 0.00376 ± 0.0019 | 0.0015 ± 0.0041 | 0.00188 ± 0.0048 | – | –
UCCUGGAUGUGCUUGCAUAGAUAAAUCAAA [g11:g20:cont:t1A] | 0.000565 ± 0.018 | 0.000352 ± 0.018 | 0.00036 ± 0.013 | 0.000298 ± 0.014 | – | –
UCCUGGAUGUCCUUGCAUAGUAUUAUGUUA | 0.00972 ± 0.0046 | 0.000657 ± 0.012 | 0.000718 ± 0.0097 | 0.000271 ± 0.012 | – | –
UCCUGGAUGUGCAUGCAUUGUAUUUAGUUA | 0.0212 ± 0.0051 | 0.00604 ± 0.0024 | 0.00226 ± 0.0036 | 0.000524 ± 0.0088 | – | –
UCCUCCUAGUGCUUGCAUAGUAUUUUCAAA | 0.0158 ± 0.0057 | 0.00108 ± 0.0043 | 0.00151 ± 0.0024 | 0.00233 ± 0.003 | – | –
UCCUCCUACACGAUGCAUAGUAUUUAGAAA | 0.102 ± 0.021 | 0.00138 ± 0.0048 | 0.000819 ± 0.0065 | 0.00369 ± 0.0021 | – | –
UCCUGGAACAGCUUCGAUAGUAUUUAGAAA | 0.0923 ± 0.021 | 0.000613 ± 0.0083 | 0.000419 ± 0.0077 | 0.00315 ± 0.0039 | – | –
UCCUGGAUGUGCUUGACAUAGUAUUUAGUUA | 0.0338 ± 0.009 | 0.00218 ± 0.0049 | 0.00166 ± 0.0073 | 0.0797 ± 0.03 | – | –
UCCUGGAUGUCGUUGCAUUGUAUUUAGUAA | 0.00216 ± 0.0053 | 0.000728 ± 0.0084 | 0.000255 ± 0.026 | 0.000211 ± 0.018 | – | –
UCCUGGAUCAGCUUGCAUUCAAUUUAGUUA | 0.00304 ± 0.0051 | 0.0025 ± 0.0027 | 0.00168 ± 0.004 | 0.00032 ± 0.0094 | – | –
UCCUGGAUGUGCUUGCAUUGUAAUUAGUUA | 0.0229 ± 0.0072 | 0.00338 ± 0.0033 | 0.00257 ± 0.0029 | 0.00224 ± 0.0039 | – | –
UCCUGGAUGUCGAACCAAAGUAUUUAGUUA | 0.000588 ± 0.011 | 0.000186 ± 0.0098 | 0.000148 ± 0.02 | < 0.0001 | – | –
UCCUGGAUGUCGAUGCAUAGUAUUAAGUUA | 0.122 ± 0.017 | 0.0035 ± 0.0025 | 0.000813 ± 0.0067 | 0.000607 ± 0.0056 | – | –
UCCUGGUACAGCUUGCAUUAGUAUUUAGUUA | 0.017 ± 0.0074 | 0.00174 ± 0.006 | 0.00109 ± 0.0078 | 0.00177 ± 0.0057 | – | –
UCCUGGAUCAGCUUGCAUAGUAUAUACAAA | 0.0964 ± 0.023 | 0.00134 ± 0.0043 | 0.00184 ± 0.0036 | 0.000755 ± 0.0041 | – | –
UCCUGGAUGAGCUUGAUAGUAUUUAGUUA | 0.017 ± 0.0068 | 0.00442 ± 0.0028 | 0.0024 ± 0.003 | 0.00185 ± 0.0049 | – | –
UCCUGGAUGUCGAACCAUUAGUAUUUAGUUA | 0.000225 ± 0.011 | < 0.0001 | 0.000356 ± 0.0094 | – | 0.000123 ± 0.046 | –
UCCUGGAUGUCGAAGCAUAGGUAUUUAGUUA | 0.000996 ± 0.0087 | 0.000554 ± 0.011 | 0.000545 ± 0.014 | 0.000221 ± 0.016 | – | –
UCCUGGAUGUCGAACGAUAAUAUUUAGUUA | 0.000102 ± 0.051 | 0.00024 ± 0.02 | 0.000554 ± 0.01 | – | < 0.0001 | –
UCCUGGAACAGCUUGCAUUCAAUUUAGUUA | 0.00304 ± 0.004 | 0.002 ± 0.0029 | 0.000631 ± 0.0066 | 0.000348 ± 0.0077 | – | –
UCCUGGAUGUCGAUGCUUAGUAUUUAGAUA | 0.000865 ± 0.012 | 0.000389 ± 0.013 | 0.00058 ± 0.0096 | 0.000558 ± 0.0068 | – | –

Sequence | pre-steady-state target cleavage rate [1, 4] | pre-steady-state target cleavage rate [1, 5] | pre-steady-state target cleavage rate [2, 5] | pre-steady-state target cleavage rate [3, 6] | pre-steady-state target cleavage rate [3, 7] | pre-steady-state target cleavage rate [2, 4]
UCCUGGAUGUCCUUGGAUAGUAUUUAGAUA | 0.129 ± 0.035 | 0.00107 ± 0.0068 | 0.000468 ± 0.015 | 0.000686 ± 0.0092 | – | –
UCCUGGAUGUCGAAGCAUAGUAUUAAGUAA | 0.0172 ± 0.0065 | 0.000612 ± 0.0085 | 0.000552 ± 0.011 | – | 0.000571 ± 0.013 | –
UCCUCCUUCAGCUUGCAUAGUAUUUUCAAA | 0.115 ± 0.022 | 0.00147 ± 0.004 | 0.00173 ± 0.0034 | 0.00259 ± 0.0024 | – | –
UCCUGGAUGUCGUUGCAUAGUAUUUGUUA | 0.00365 ± 0.0039 | 0.00068 ± 0.0076 | 0.000658 ± 0.009 | 0.000242 ± 0.014 | – | –
UCCUGGAUGAGGUUGCAUACUAUUUAGUUA | 0.0167 ± 0.006 | 0.00194 ± 0.0037 | 0.00126 ± 0.0051 | 0.00096 ± 0.0058 | – | –
UCCUCCUACAGCUUCCAAAGUAUUUAGUUA | 0.13 ± 0.019 | 0.0037 ± 0.0022 | 0.0016 ± 0.0019 | – | 0.00059 ± 0.01 | –
UCCUGGAUGUGCUUGCAUAGUAUUUAUUA | 0.00911 ± 0.0051 | 0.00103 ± 0.0067 | 0.0025 ± 0.0028 | 0.00271 ± 0.0022 | – | –
UCCUGCUUGUGCUUGCAUAGUAUUUUCAAA | 0.00521 ± 0.0042 | 0.000743 ± 0.0063 | 0.00139 ± 0.0036 | 0.0022 ± 0.0034 | – | –
UCCUGGAUGUCGAACGAUACUAUUUAGUUA | 0.000142 ± 0.037 | 0.000257 ± 0.014 | 0.000272 ± 0.022 | – | 0.000126 ± 0.03 | –
UCCUCCUAGAGCUUGCAUAGUAUUUACAAA | 0.0915 ± 0.027 | 0.000972 ± 0.0061 | 0.00231 ± 0.0035 | 0.00252 ± 0.0019 | – | –
UCCUGGAACAGCUACCAUAGUAUUUAGUAA | 0.23 ± 0.028 | 0.00298 ± 0.0029 | 0.00131 ± 0.0066 | 0.00249 ± 0.0036 | – | –
UCCUGGAUGUCGUUGCAUAGUUAAUAGUUA | 0.00244 ± 0.0053 | 0.00434 ± 0.0022 | 0.0015 ± 0.005 | 0.00043 ± 0.01 | – | –
UCCUCCAACAGCUUGCAUAGUAUUUAGUUA | 0.329 ± 0.017 | 0.00861 ± 0.0027 | – | 0.113 ± 0.032 | – | 1.37 ± 0.041
UCCUGGAUGUGCUUGCACUAGUAUUUAGUUA | 0.00384 ± 0.0046 | 0.00137 ± 0.0039 | 0.0012 ± 0.0071 | 0.000325 ± 0.014 | – | 0.00266 ± 0.0046
UCCUGGAUGUCCUUGCAAAGUAUAUAGUUA | 0.0544 ± 0.014 | 0.00539 ± 0.002 | 0.00157 ± 0.0045 | 0.000387 ± 0.01 | – | –
UCCUGGAUGUCGUUGCUAUGUAUUUAGUUA | 0.000946 ± 0.0098 | 0.00038 ± 0.012 | 0.000686 ± 0.014 | 0.000292 ± 0.013 | – | 0.000263 ± 0.033
UCCUGGAACAGCUUGCUAUAGUAUUUAGUUA | 0.028 ± 0.0077 | 0.000838 ± 0.0069 | 0.00258 ± 0.0033 | 0.00682 ± 0.0023 | – | –
UCCUGGAUCAGCUUGCAUAGUAUAAAGUAA | 0.11 ± 0.024 | 0.00205 ± 0.0038 | 0.00359 ± 0.0037 | 0.00455 ± 0.0038 | – | –
UCCUGGAUGUGCUUGCAAUCUAUUUAGUUA | 0.00256 ± 0.0038 | 0.00135 ± 0.0039 | 0.000282 ± 0.0094 | 0.000648 ± 0.01 | – | 0.00144 ± 0.0056
UCCUGGAUGUCGAACCUUAGUUUUUAGUUA | 0.000308 ± 0.02 | 0.000109 ± 0.015 | 0.000385 ± 0.01 | 0.000337 ± 0.016 | – | 0.000338 ± 0.017
UCCUGGAUGUCGAACCAUAGUAUUUUAGUUA | 0.000813 ± 0.0077 | 0.000308 ± 0.013 | 0.000388 ± 0.017 | 0.000153 ± 0.016 | – | 0.000185 ± 0.018
